Laboratory results: PMC10987651
No constants are given. Whether binding was seen depends on the method and setting. In cells and extracts the contact can be indirect. Some entries that bind do so weakly or less than the wild type.

Legend:
Experiment in all cases: FRET or BRET + co-IP
ORF7b (SARS-CoV-2) = ORF7b (SARS-CoV-2) (UniProt P0DTD8)
ORF3a (SARS-CoV-2) = ORF3a (SARS-CoV-2) (UniProt P0DTC3)
NSP9 (SARS-CoV-2) = NSP9 (SARS-CoV-2) (UniProt P0DTD1)
[1] = target: membrane glycoprotein M (SARS-CoV-2) (UniProt P0DTC5)
NSP6 (SARS-CoV-2) = NSP6 (SARS-CoV-2) (UniProt P0DTD1)

**Q.** How did the binding (ORF7b (SARS-CoV-2)) turn out when NSP4 (from UniProt P0DTD1 2764-3263) was run?
**A.** Its binding is “binds”.

**Q.** How did the binding (ORF3a (SARS-CoV-2)) turn out when ORF3a (from UniProt P0DTC3 1-275) was run?
**A.** Its binding is “binds”.

**Q.** What about the binding (NSP9 (SARS-CoV-2)) of the same substance?
**A.** The binding was “binds”.

**Q.** “envelope protein E (from UniProt P0DTC4 1-75)” was tested. Which binding [1] did it give?
**A.** Its binding is “binds”.

**Q.** And the binding (NSP6 (SARS-CoV-2))?
**A.** The binding was “binds”.

**Q.** For “membrane glycoprotein M (from UniProt P0DTC5 1-222)”, which binding (ORF3a (SARS-CoV-2)) is on record?
**A.** Its binding is “binds”.
